Measurements: PMC8273886 (Journal of Medicinal Chemistry, 2021)
HELM strings list residues between dots; [ac] is acetyl, [am] amide, other brackets name non-standard units. Bridge positions count the residues as written; N and C are the ends.

Assay: general procedure: Fmoc solid-phase peptide synthesis; 2-chlorotrityl resin; 2-(6-chloro-1H-benzo-triazol-1-yl)-1,1,3,3-tetramethylaminium hexafluorophosphat
Details: whole synthesis
[1] = RP-HPLC (SFTI-1, helianorphin 1-4 and 19) or RP-UPLC (helianorphin 5-18), automatic peak integration
[2] = RP-HPLC (SFTI-1, helianorphin 1-4 and 19) or RP-UPLC (helianorphin 5-18), automatic peak integration, bicyclic

Substance	final HPLC purity [1]	final HPLC purity [2]	final HPLC purity (215 nm)
cyclo(CTKSIPPICYGGFLRRI) (disulfide 1-9; SMILES CC[C@H](C)[C@@H]1NC(=O)[C@H](CCCNC(=N)N)NC(=O)[C@H](CCCNC(=N)N)NC(=O)[C@H](CC(C)C)NC(=O)[C@H](Cc2ccccc2)NC(=O)CNC(=O)CNC(=O)[C@H](Cc2ccc(O)cc2)NC(=O)[C@@H]2CSSC[C@H](NC1=O)C(=O)N[C@@H]([C@@H](C)O)C(=O)N[C@@H](CCCCN)C(=O)N[C@@H](CO)C(=O)N[C@@H]([C@@H](C)CC)C(=O)N1CCC[C@H]1C(=O)N1CCC[C@H]1C(=O)N[C@@H]([C@@H](C)CC)C(=O)N2)	96.0%		
c-CTASIPPICYGGFLR		100.0%	
cyclo(CFPDGRCYGGFLRI) (disulfide 1-7; SMILES CC[C@H](C)[C@@H]1NC(=O)[C@H](CCCNC(=N)N)NC(=O)[C@H](CC(C)C)NC(=O)[C@H](Cc2ccccc2)NC(=O)CNC(=O)CNC(=O)[C@H](Cc2ccc(O)cc2)NC(=O)[C@@H]2CSSC[C@H](NC1=O)C(=O)N[C@@H](Cc1ccccc1)C(=O)N1CCC[C@H]1C(=O)N[C@@H](CC(=O)O)C(=O)NCC(=O)N[C@@H](CCCNC(=N)N)C(=O)N2)	99.3%		
PEPTIDE1{C.T.K.S.I.P.P.I.C.F.P.D.G.R}$PEPTIDE1,PEPTIDE1,1:R1-14:R2|PEPTIDE1,PEPTIDE1,1:R3-9:R3$$$V2.0	100.0%		
cyclo(CRIRPKLKCTYGGFLR) (disulfide 1-9; SMILES CC[C@H](C)[C@@H]1NC(=O)[C@H](CCCNC(=N)N)NC(=O)[C@@H]2CSSC[C@H](NC(=O)[C@H](CCCCN)NC(=O)[C@H](CC(C)C)NC(=O)[C@H](CCCCN)NC(=O)[C@@H]3CCCN3C(=O)[C@H](CCCNC(=N)N)NC1=O)C(=O)N[C@@H]([C@@H](C)O)C(=O)N[C@@H](Cc1ccc(O)cc1)C(=O)NCC(=O)NCC(=O)N[C@@H](Cc1ccccc1)C(=O)N[C@@H](CC(C)C)C(=O)N[C@@H](CCCNC(=N)N)C(=O)N2)	99.1%		
c-CTASIPPICYGGFR		98.3%	
c-CYGGFLRRICFPDGR		99.9%	
c-CTfflkPICFPDGR	94.2%		
c-CTASIPPICffbrR		100.0%	
PEPTIDE1{C.Y.G.G.F.L.R.R.C.I.R.P.K.L.K}$PEPTIDE1,PEPTIDE1,1:R1-15:R2|PEPTIDE1,PEPTIDE1,1:R3-9:R3$$$V2.0	99.9%		>95%
c-CTASIPPICffbrLRRIRPKLK		100.0%	
cyclo(CFPDGRCTYGGFLR) (disulfide 1-7; SMILES CC(C)C[C@@H]1NC(=O)[C@H](Cc2ccccc2)NC(=O)CNC(=O)CNC(=O)[C@H](Cc2ccc(O)cc2)NC(=O)[C@H]([C@@H](C)O)NC(=O)[C@@H]2CSSC[C@H](NC(=O)[C@H](CCCNC(=N)N)NC1=O)C(=O)N[C@@H](Cc1ccccc1)C(=O)N1CCC[C@H]1C(=O)N[C@@H](CC(=O)O)C(=O)NCC(=O)N[C@@H](CCCNC(=N)N)C(=O)N2)	99.3%		
c-CTffbrPICFPDGR	100.0%		
cyclo(CTKSIPPICYGGFLRRIRPKLK) (disulfide 1-9; SMILES CC[C@H](C)[C@@H]1NC(=O)[C@H](CCCNC(=N)N)NC(=O)[C@H](CCCNC(=N)N)NC(=O)[C@H](CC(C)C)NC(=O)[C@H](Cc2ccccc2)NC(=O)CNC(=O)CNC(=O)[C@H](Cc2ccc(O)cc2)NC(=O)[C@@H]2CSSC[C@H](NC(=O)[C@H](CCCCN)NC(=O)[C@H](CC(C)C)NC(=O)[C@H](CCCCN)NC(=O)[C@@H]3CCCN3C(=O)[C@H](CCCNC(=N)N)NC1=O)C(=O)N[C@@H]([C@@H](C)O)C(=O)N[C@@H](CCCCN)C(=O)N[C@@H](CO)C(=O)N[C@@H]([C@@H](C)CC)C(=O)N1CCC[C@H]1C(=O)N1CCC[C@H]1C(=O)N[C@@H]([C@@H](C)CC)C(=O)N2)	99.7%		
c-CTYGGFPICFPDGR		99.5%	
c-CTASIPPICffbrLRRIRpKLK		100.0%	
c-CTASIPPICfflkR		93.5%	
